Reference: paper PMC9156709
Results are given in words; binding and its absence hold for the method and conditions named. Some binding calls cover weakened binding; strength is not graded here. Tags and fused reporters may be left off the sequences shown.

Sequences of proteins named here, by UniProt entry; tags and fusion partners are left off. A change or cut given only in a name is not applied to a line headed by its entry.
UniProt P54646: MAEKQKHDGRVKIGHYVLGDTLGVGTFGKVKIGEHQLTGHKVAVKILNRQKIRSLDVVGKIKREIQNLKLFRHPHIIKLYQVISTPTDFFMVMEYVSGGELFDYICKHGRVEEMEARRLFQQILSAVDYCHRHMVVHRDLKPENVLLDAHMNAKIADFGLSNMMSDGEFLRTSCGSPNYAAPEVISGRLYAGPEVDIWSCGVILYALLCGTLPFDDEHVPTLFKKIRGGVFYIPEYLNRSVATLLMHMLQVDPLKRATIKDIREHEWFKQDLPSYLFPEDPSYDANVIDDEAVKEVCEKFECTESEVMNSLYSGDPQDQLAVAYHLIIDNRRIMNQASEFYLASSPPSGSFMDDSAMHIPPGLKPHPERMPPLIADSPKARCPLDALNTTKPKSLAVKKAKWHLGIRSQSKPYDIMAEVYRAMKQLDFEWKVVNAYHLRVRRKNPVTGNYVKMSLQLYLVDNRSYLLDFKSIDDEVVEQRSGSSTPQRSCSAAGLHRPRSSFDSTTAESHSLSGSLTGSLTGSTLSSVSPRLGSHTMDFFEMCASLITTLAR

Molecular target: T1, Flag-HA tagged PFKP (human) (UniProt Q01813)
T1 sequence: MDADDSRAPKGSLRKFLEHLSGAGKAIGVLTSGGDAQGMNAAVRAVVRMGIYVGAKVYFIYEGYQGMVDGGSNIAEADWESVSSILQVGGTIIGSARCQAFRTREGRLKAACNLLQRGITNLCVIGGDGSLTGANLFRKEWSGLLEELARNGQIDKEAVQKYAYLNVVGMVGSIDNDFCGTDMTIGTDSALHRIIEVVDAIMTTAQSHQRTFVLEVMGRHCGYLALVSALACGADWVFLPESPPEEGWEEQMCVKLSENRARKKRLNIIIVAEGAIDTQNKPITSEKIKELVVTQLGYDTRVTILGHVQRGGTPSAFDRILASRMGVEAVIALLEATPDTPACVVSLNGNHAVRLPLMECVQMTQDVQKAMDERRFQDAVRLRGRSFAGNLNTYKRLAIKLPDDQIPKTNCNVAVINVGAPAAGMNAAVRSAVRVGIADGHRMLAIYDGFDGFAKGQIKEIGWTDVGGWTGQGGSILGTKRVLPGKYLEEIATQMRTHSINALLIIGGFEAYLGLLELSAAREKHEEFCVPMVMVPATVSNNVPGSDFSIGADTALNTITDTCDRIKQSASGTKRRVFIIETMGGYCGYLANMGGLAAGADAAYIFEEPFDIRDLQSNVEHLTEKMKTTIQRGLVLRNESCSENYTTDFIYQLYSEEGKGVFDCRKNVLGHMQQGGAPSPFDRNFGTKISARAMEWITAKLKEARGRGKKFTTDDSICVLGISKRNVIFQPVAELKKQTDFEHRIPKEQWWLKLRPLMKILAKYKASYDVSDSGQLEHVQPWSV
Assay: pull-down; in vitro protein-protein interaction assay: Flag-HA tagged PFKP or domains purified by Flag IP and held on FLAG M2 beads, incubated with 50 ng tagged AMPK complex in 1 mL lysis buffer (20 mM Tris pH 7.4, 150 mM NaCl, 1 mM EDTA, 1 mM EGTA, 1% Triton X-100) for 1 h at room temperature, washed thrice, western blot; both purified

binding: binds
Substance: GST-His tagged AMPKα2/β2/γ3 (from UniProt P54646 1-552; O43741 1-272; Q9UGI9 1-489) (complex)
